Results deposited as PubChem BioAssay AID1259254 (NCATS, 2017).

- Test: 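Gene knock-downs that lead to re-replication, shown by excess G2 DNA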 (primary screen)
- System: human HCT116 colorectal cancer cells
- Reagent: single siRNA against human genes
- Time to read-out: 3 days
- Measurement: 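Imaged Hoechst DNA stain sorts each cell into a cycle phase by DNA amount; per plate, G2 fraction set to 0% for non-targeting and 100% for GMNN siRNA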
- Scale: G2 robust z-score: higher = more G2 cells, more excess DNA replication
- Call rule: 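Active siRNAs have a G2 robust z of 5 or more median absolute deviations over the median, which in these data means about 38% or higher of GMNN control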
Here is a random part of about 59,000 deposited reagents. Of all reagents, about 1,550 (2.6%) got an active call. 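G2 share is only a proxy for re-replication; each gene was hit by three separate siRNAs, and active genes were retested.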 A number with no mark means an inactive call. Reagents against one gene are numbered here. Not all columns of the deposit are shown. Not given: the amount of reagent.

| target | reagent | G2 robust z-score |
| --- | --- | --- |
| GBP5 (GeneID 115362) | 1 | 1.35 |
| GBP5 (GeneID 115362) | 2 | 1.7 |
| GBP5 (GeneID 115362) | 3 | -0.825 |
| PSMD3 (GeneID 5709) | 1 | 4.4 |
| PSMD3 (GeneID 5709) | 2 | 1.14 |
| PSMD3 (GeneID 5709) | 3 | 2.62 |
| CENPV (GeneID 201161) | 1 | 0.406 |
| CENPV (GeneID 201161) | 2 | -0.426 |
| CENPV (GeneID 201161) | 3 | 0.0707 |
| ZNF780A (GeneID 284323) | 1 | 0.774 |
| ZNF780A (GeneID 284323) | 2 | 0.486 |
| ZNF780A (GeneID 284323) | 3 | -0.217 |

A few values from above:
For “G2 robust z-score”, ZNF780A (GeneID 284323) #1 reads 0.774
CENPV (GeneID 201161) #1, G2 robust z-score: 0.406

The listing continues.
| target | reagent | G2 robust z-score |
| --- | --- | --- |
| RBL2 (GeneID 5934) | 1 | -0.746 |
| RBL2 (GeneID 5934) | 2 | -0.0472 |
| RBL2 (GeneID 5934) | 3 | -0.186 |
| PACRG-AS3 (GeneID 729658) | 1 | -1.12 |
| PACRG-AS3 (GeneID 729658) | 2 | 1.24 |
| PACRG-AS3 (GeneID 729658) | 3 | 1.18 |
| PROCR (GeneID 10544) | 1 | 0.609 |
| PROCR (GeneID 10544) | 2 | -1.41 |
| PROCR (GeneID 10544) | 3 | -1.1 |
| CYFIP2 (GeneID 26999) | 1 | 0.0246 |
| CYFIP2 (GeneID 26999) | 2 | -0.531 |
| CYFIP2 (GeneID 26999) | 3 | -0.221 |
| SNX16 (GeneID 64089) | 1 | 0.793 |
| SNX16 (GeneID 64089) | 2 | -0.249 |
| SNX16 (GeneID 64089) | 3 | -0.782 |
| MTG1 (GeneID 92170) | 1 | 4.7 |
| MTG1 (GeneID 92170) | 2 | -0.34 |
| MTG1 (GeneID 92170) | 3 | 0.276 |
